# Measurements from PubChem BioAssay AID504444 (National Center for Advancing Translational Sciences (NCATS), 2011).
# In all, about 360,000 compounds went through this assay and about 7,500 (2.1%) were called active. Inconclusive means that the source gave no clear call. Such entries were picked first, then a sample of the others. The call rests on the fitted dose curve; in most records, active means well fitted inhibition curve with a large enough effect; inconclusive means small, poorly fitted or top-dose-only effect, or effect the other way; inactive means flat fitted curve, though single readings scatter. Potencies of inconclusive entries are doubtful fits and often do not repeat.
# Assay: Nrf2 qHTS screen for inhibitors; further: nearly all actives have a fitted effect of over 60% in size
# Details: A549 ARE-Fluc reporter, luciferase luminescence, 18-24 h; series mostly up to 46 µM
# Method in brief: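 Reporter: ARE-Fluc in A549. Exposure: 18-24 h, 37 °C, 5% CO2, 5% FBS OPTI-MEM. Readouts: fluorescent cytotoxicity (CellTiter-Fluor), then luminescent Nrf2 signal after BugLite.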
# Potency means the concentration at half of the fitted maximal effect.
row,Compound,Potency
1,COc1cc(-c2noc(-c3nnn(-c4ccc(Cl)cc4)c3C)n2)cc(OC)c1OC,inactive
2,CSc1nc2ccc(NS(=O)(=O)c3ccc4c(c3)OCCO4)cc2s1,"inconclusive: 25.9 µM [falling, single point]"
3,Cc1csc(=NC(=O)c2ccccc2)n1C,"inconclusive: 2.59 µM [activator, full curve, poor fit]"
4,O=[N+]([O-])c1cc(C2Nc3cccc4cccc(c34)N2)ccc1Cl,inactive
5,CC(=O)Nc1ccc(C(=O)CN2C(=O)NC3(CCOc4ccccc43)C2=O)c(F)c1 (stereo not given),inactive
6,COc1ccc(C(CNC(=O)c2cccc(S(=O)(=O)Nc3ccccc3Cl)c2)N2CCOCC2)cc1 (stereo not given),active: 18.4 µM
7,COc1cccc(C(=O)Nc2ccc(N3CCN(C(=O)c4ccco4)CC3)cc2)c1,"inconclusive: 5.17 µM [falling, partial curve, poor fit]"
8,COc1ccc(-c2csc(NC(=O)COC(=O)C3=COCCO3)n2)cc1,"inconclusive: 2.06 µM [activator, full curve]"
9,Cc1cc(/C=N/n2cnnc2)c(C)n1-c1ccc2ncccc2c1,"inconclusive: 20.6 µM [falling, single point]"
10,COc1cc(OC)c(NC(=S)Nc2cc(Cl)cc(Cl)c2)cc1Cl,active: 20.6 µM
11,O=C(c1cc(-c2ccccc2)on1)N1CCCCCC1,"inconclusive: 4.61 µM [activator, full curve]"
12,CN(C)CCCNc1c2c(nc3cc(-c4cccc(F)c4)nn13)CCC2,"inconclusive: 7.31 µM [falling, single point]"
13,Cc1ccc(CCC(=O)Nc2ccccc2F)s1,"inconclusive: 29.1 µM [activator, single point]"
14,Cc1ccc(-n2nc3c(=O)n(C(C)C(=O)O)nc(C)c3c2C)cc1 (stereo not given),inactive
15,O=C(O)c1ccc(N=NN2CCCCC2)cc1,"inconclusive: 2.59 µM [activator, full curve]"
16,COc1ccc(Cc2nc3ccc(C(=O)N4CCCC4)cc3o2)cc1OC,"inconclusive: 25.9 µM [falling, single point]"
17,Cc1c(C(=O)N2CCCC2)c(S(=O)(=O)Nc2ccccc2)c(C)n1C,"inconclusive: 29.1 µM [activator, single point]"
18,COc1ccc(Cn2c(C(=O)O)c(CNCCc3ccccc3Cl)c3ccc(C)cc32)cc1,"inconclusive: 32.6 µM [falling, single point]"
19,CCC(=O)N1CCc2cc(S(=O)(=O)CCC(=O)NCc3ccc(F)cc3)ccc21,inactive
20,COc1ccc(N=Nc2[nH]c3ccc(C)cc3c2O)cc1,inactive

# Two of the compounds above, bar-delimited:
row | Compound | Potency
11 | O=C(c1cc(-c2ccccc2)on1)N1CCCCCC1 | inconclusive: 4.61 µM [activator, full curve]
12 | CN(C)CCCNc1c2c(nc3cc(-c4cccc(F)c4)nn13)CCC2 | inconclusive: 7.31 µM [falling, single point]
